# Article PMC12670160, “A drug-repurposing screen of FDA- and EMA-approved drugs identifies two NF-κB inhibitors active against eumycetoma” (Journal of Antimicrobial Chemotherapy, 2025)
# Where a name gives a salt, the structure may show the parent alone. Out of some 5,300 compounds screened, about 130 (2.5%) showed an effect of 50% or more. The list shows a part of the results.
# Tested on: M. mycetomatis strain mm55
# Conditions: primary screen, metabolic activity vs growth control; 96 h, 2 µM; inhibitor
row,Compound,% viability [%]
1,"Fc1ccc(C(c2ccc(F)cc2)N2CCN(C/C=C/c3ccccc3)CC2)cc1 [ONC0004452, flunarizine]",108.3
2,"Oc1ccc([C@H]2COc3cc(O)ccc3C2)cc1 [ONC0004406, equol]",119.9
3,"O=c1cc(-c2cccc3c2Sc2ccccc2S3)oc(N2CCOCC2)c1 [ONC0000134, ku55933]",87.24
4,"c1ccc(CNCc2ccc(CN3CCCNCCNCCCNCC3)cc2)nc1 [ONC0001477, amd3465]",65.25
5,"C[C@H](c1ccc2ccc(O[C@H]3CC[C@@H](C(F)(F)F)CC3)c(C(F)(F)F)c2c1)N1C2CCC1CC(C(=O)O)C2 (stereo partly drawn) [ONC0002093, autotaxin modulator 1]",88
6,"Cc1ncc(CNC(=O)N(CCCl)N=O)c(N)n1 [ONC0005389, nimustine]",105.1
7,"Cn1nnc(-c2ccc(-c3ccc(N4C[C@H](COP(=O)(O)O)OC4=O)cc3F)cn2)n1 [ONC0001833, tedizolid phosphate]",90.42
8,"Oc1cccc(-c2c3nc(c(-c4cccc(O)c4)c4ccc([nH]4)c(-c4cccc(O)c4)c4nc(c(-c5cccc(O)c5)c5ccc2[nH]5)CC4)C=C3)c1 [ONC0001003, temoporfin]",75.19
9,"Cc1cccc(C(=O)O)c1O [ONC0003270, hydroxytoluic acid]",66.55
10,Cc1ccc2c(Br)cc(Br)c(OC(=O)c3ccccc3)c2n1 [Broxaldine],3.407
11,"NCCNC(=O)c1ccc(Cl)cn1 [ONC0003049, lazabemide]",116.4
12,"Cc1cc2c(N3CCCC3)nc(N3CCCC3)nc2n1C [ONC0003662, pnu89843]",57.55
13,"O=C(O)[C@H](O)[C@@H](O)[C@H](O)[C@H](O)C(O)CO (stereo partly drawn) [ONC0002756, sodium glucoheptonate dihydrate]",84.97
14,"O=C(Nc1ccc(Cl)nc1)c1ccc(Cl)cc1 [ONC0002468, ica110381]",70.91
15,"NC1=N[C@H]2[C@H](CCCCC(=O)O)SC[C@H]2N1 [ONC0003635, 2iminobiotin]",86.51
16,"N=C(N)NC(=N)Nc1ccccc1 [ONC0000154, 1phenylbiguanide]",91.38
17,"CCc1nc2ccc(Cl)cn2c1C(=O)NCc1ccc(N2CCC(c3ccc(OC(F)(F)F)cc3)CC2)cc1 [ONC0003730, q203]",122.5
18,"Cc1cc(C(=O)NOCCO)c(Nc2ccc(I)cc2F)n(C)c1=O [ONC0005274, azd8330]",176.6

# A draw from above in order of length of the SMILES, falling:
row,Compound,% viability [%]
18,"Cc1cc(C(=O)NOCCO)c(Nc2ccc(I)cc2F)n(C)c1=O [ONC0005274, azd8330]",176.6
2,"Oc1ccc([C@H]2COc3cc(O)ccc3C2)cc1 [ONC0004406, equol]",119.9
16,"N=C(N)NC(=N)Nc1ccccc1 [ONC0000154, 1phenylbiguanide]",91.38

# Next compounds:

row,Compound,% viability [%]
1,"CCOC(=O)C1=C(N)Oc2ccc(Br)cc2[C@H]1[C@H](C#N)C(=O)OCC [ONC0004730, ha141]",132.5
2,"Cn1cnc2c(NCc3ccccc3)nc(NCCO)nc21 [ONC0001590, olomoucine]",82.51
3,"CC1(C)S[C@@H]2[C@H](NC(=O)[C@H](N)c3ccc(O)cc3)C(=O)N2[C@H]1C(=O)O [ONC0003222, amoxicillin]",90.48
4,"CC(C)N1Cc2cc(S(C)(=O)=O)ccc2N(CCN2CC=C(c3c[nH]c4cc(F)ccc34)CC2)S1(=O)=O [ONC0002623, ly393558]",70.5
5,"COc1cccc2c1C(=O)c1c(O)c3c(c(O)c1C2=O)C[C@@](O)(C(=O)CO)C[C@@H]3O[C@H]1C[C@H](N)[C@H](O)[C@H](C)O1 [ONC0000085, doxorubicin]",96.01
6,"O=C(c1c2ccccc2cc2ccccc12)N1CCC(N2CCC[C@@H](C(=O)N3CCOCC3)C2)CC1 [ONC0004304, cp640186 hydrochloride]",72.72
7,"OCCOCCN1CCN(C2=Nc3ccccc3Sc3ccccc32)CC1 [ONC0005533, quetiapine fumarate]",98.85
8,"Cc1nc(Nc2cnn(C3CCNCC3)c2)nc2c1N(C)C(=O)c1cc3ccccc3cc1N2C [ONC0003623, hth01015]",63.72
9,"Cc1c(N)nc([C@H](CC(N)=O)NC[C@H](N)C(N)=O)nc1C(=O)N[C@H](C(=O)N[C@H](C)[C@@H](O)[C@H](C)C(=O)N[C@H](C(=O)NCCc1nc(-c2nc(C(=O)NCCC[S+](C)C)cs2)cs1)[C@@H](C)O)[C@@H](O[C@@H]1O[C@@H](CO)[C@@H](O)[C@H](O)[C@@H]1O[C@H]1O[C@H](CO)[C@@H](O)[C@H](OC(N)=O)[C@@H]1O)c1c[nH]cn1 [ONC0004316, bleomycin sulfate]",4.137
10,"Nc1nc2c(ncn2[C@@H]2O[C@H](CO)[C@@H](O)[C@H]2O)c(=O)[nH]1 [ONC0005019, guanosine]",116.9
11,"Oc1cccc2cccnc12 [ONC0000590, oxyquinoline hemisulfate]",81.18
12,"C[C@H]1O[C@H](O[C@H]2[C@H](O)[C@@H](O)[C@@H](O[C@H]3[C@H](O)[C@@H](O)[C@H](O)O[C@@H]3CO)O[C@@H]2CO)[C@H](O)[C@@H](O)[C@@H]1N[C@H]1C=C(CO)[C@@H](O)[C@H](O)[C@H]1O [ONC0004258, acarbose]",73.72
13,"Cc1cc2c(cc1S(N)(=O)=O)S(=O)(=O)CCC2 [ONC0005435, meticrane]",136.3
14,"COCCOc1cnc2ccn([C@H](C)c3nnc4c(F)cc(-c5cnn(C)c5)cn34)c(=O)c2c1 [ONC0001822, amg337]",106.7
15,"CC(CCC(=O)O)[C@H]1CCC2C3C(=O)C[C@@H]4CC(=O)CC[C@]4(C)C3CC(=O)[C@@]21C (stereo partly drawn) [ONC0003216, dehydrocholic acid]",99.22
16,"CC(C)(O)C(Cl)(Cl)Cl [ONC0000494, chlorobutanol]",67.65
17,"COc1ccc2c(C)nc(Nc3nc(C)c(C)c(=O)[nH]3)nc2c1 [ONC0002297, madrasin]",81.69
18,"Cl/C=C\C[N+]12CN3CN(CN(C3)C1)C2 [ONC0003842, 1z3chloroallyl1357tetraazaadamantan 1ium chloride]",80.34
